# No constants are given. Whether binding was seen depends on the method and setting. Binding seen in cells or lysates may run through a third protein. Binding calls can cover weak binding; strength is not graded here. Sequences can lack the tags named with a protein.
# Target: BbAtg3 fused to the N-terminal fragment of split YFP (BbATG3-YN) (Beauveria bassiana)
# Test: split reporter; split YFP (YN, YC) in the wild-type strain of B. bassiana; transformants propagated in SDB and starved; fluorescence in mycelia by laser confocal microscopy
binder,measurement,value
"BbAtg1 fused to the C-terminal fragment of split YFP (BbATG1-YC) (enzyme, UniProt J4W0G2 1-930) MTSRQEGASSHGSRRSSRHVGSFIIDREIGKGSFAQVYMGWHKESKAAVAIKSVELERLNKKLKENLYGEIQILKTLRHPHIVALHDCVESSTHINLIMEYCELGDLSLFIKKRDKLITHPATHDMARKYPSAPNSGLHEVVIRHFLKQLSSALEFLRAKNYVHRDVKPQNLLLLPSQAFREERALPIMEASQDSLIPISGLASLPMLKLADFGFARVLPSTSLADTLCGSPLYMAPEILRYERYDAKADLWSVGTVLYEMITGRPPFRARNHVELLRKIEAAEDVIKFPREVSVTPDLKALVRSLLKRSPVERLSFENFFAHHVVTGDILGLVEDDIPKPPKRELETIRQGEALPSSPRVQMARQLSSDPRDTRSSPKSPRSSPRSSTVNSSADAAPRRQSQNAERRLSISSHNSGQGLGIQRPAPPIQSHTAPNHPRAADRSGREPQPSSLRVARQPSDVSLTEEEKAAQDVMFERDYVVVERRHVEVNALADELAANEKLGQNNSSAKSSPLQRRYTQQGSATSTTGAIPTPASRTALVAQGRAGQDRRSSYEKALSASPGSASSAISKAIQDASLRLFGYKVNTMRQKGSSPPLYQPFPAYPTPTSAGLLSDGKGSQVSDEDAKAAQAIEEFATRSDCVYGFAEVKYKQLLPMAPSMDYGLGGVSPDKGTSEEDGLTVDATVALSEEALVLYVKSLTLLARAMDIASLWWSKKTRAESSVVSQTLVQRINAVVQWVRQRFNEVLEKSEVVRLKLTEAQKLLPEDHPSNPAHQGEDSIASSAVGAKQVYLTPGISAEKLMYDRALEMSRAAAIDEVTNENLPGCEISYLTAIRMLEAVLDSDDEATARNISSGKEIAKDATQEGSDLDTEEAAHVRKMITMITGRLNMVRKKQQMIAEANNQAKHVSAMRRLSGDVTPRSVPSYGST",binding,binds

# Source: PMC8823290
